{"sequences": {"note": "By UniProt entry, the sequences of proteins in these tests, tags left out. Where a name states a change or a piece, a line headed by the entry shows the natural chain unless it says otherwise.", "UniProt Q07011": "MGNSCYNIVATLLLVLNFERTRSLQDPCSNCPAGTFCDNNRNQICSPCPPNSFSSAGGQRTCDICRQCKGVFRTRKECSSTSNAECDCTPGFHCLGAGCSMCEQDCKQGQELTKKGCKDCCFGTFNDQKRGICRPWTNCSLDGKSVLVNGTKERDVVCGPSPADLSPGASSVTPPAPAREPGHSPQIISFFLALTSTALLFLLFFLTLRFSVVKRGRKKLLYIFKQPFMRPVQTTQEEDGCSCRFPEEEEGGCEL", "UniProt Q9NZQ7": "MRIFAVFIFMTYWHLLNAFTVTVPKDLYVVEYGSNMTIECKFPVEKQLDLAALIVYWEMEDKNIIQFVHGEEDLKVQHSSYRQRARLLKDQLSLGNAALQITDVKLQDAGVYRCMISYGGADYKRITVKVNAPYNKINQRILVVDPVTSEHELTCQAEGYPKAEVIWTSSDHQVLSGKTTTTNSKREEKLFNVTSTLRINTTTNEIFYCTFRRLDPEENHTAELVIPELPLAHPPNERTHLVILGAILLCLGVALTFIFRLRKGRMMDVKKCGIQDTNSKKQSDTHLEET"}, "source": "patent US20250145718A1", "binders": {"B1": {"name": "41B01 (anti-4-1BB monoclonal antibody) (antibody, V domains shown)", "VH": "EVQLLESGGGLVQPGGSLRLSCAASGFTFSSYDMSWVRQAPGKGLEWVSWISYSGGSIYYADSVKGRFTISRDNSKNTLYLQMNSLRAEDTAVYYCARDGQRNSMREFDYWGQGTLVTVSS", "VL": "QSVLTQPPSASGTPGRRVTISCSGSSSNIGNNYVTWYQQLPGTAPKLLIYADSHRPSGVPDRFSGSKSGTSASLAISGLRSEDEADYYCATWDYSLSGYVFGGGTKLTVL"}, "B2": {"name": "41B02 (anti-4-1BB monoclonal antibody) (antibody, V domains shown)", "VH": "EVQLLESGGGLVQPGGSLRLSCAASGFTFSGYDMSWVRQAPGKGLEWVSVIYPDDGNTYYADSVKGRFTISRDNSKNTLYLQMNSLRAEDAAVYYCAKHGGQKPTTKSSSAYGMDGWGQGTLVTVSS", "VL": "B1 VL"}, "B3": {"name": "H12 (Hu1210-41; Hu1210 VH.4d x Hu1210 VK.1) (antibody, V domains shown)", "VH": "EVQLVESGGGLVQPGGSLRLSCAASGFTFSSYDMSWVRQAPGKSLEWVATISDAGGYIYYSDSVKGRFTISRDNAKNSLYLQMNSLRDEDTAVYICAREFGKRYALDYWGQGTTVTVSS", "VL": "DIQMTQSPSSLSASVGDRVTITCKASQDVTPAVAWYQQKPGKAPKLLIYSTSSRYTGVPSRFSGSGSGTDFTFTISSLQPEDIATYYCQQHYTTPLTFGQGTKLEIK"}, "B4": {"name": "B6 (anti-PD-L1 clone derived from Hu1210-41) (antibody, V domains shown)", "VH": "B3 VH with S61R, F100L, G101P, K102W", "VL": "B3 VL"}}, "key": {"[1]": {"biological_target": "4-1BB (Octet Red 96 kinetics, Example 2.2(3)) (human) (UniProt Q07011)", "assay": "BLI (Octet Red 96)"}, "[2]": {"biological_target": "PD-L1 (Biacore kinetics, Example 1.5) (UniProt Q9NZQ7)", "assay": "SPR (Biacore)"}}, "note": "Where a chain is given by its changes, count along the chain named. These are yes or no findings as the source states them, for the method shown. Some binding calls cover weakened binding; strength is not graded here."}
{"binder": "B1", "values": [{"measurement": "binding", "setting": "[1]", "value": "binds"}]}
{"binder": "B2", "values": [{"measurement": "binding", "setting": "[1]", "value": "binds"}]}
{"binder": "B3", "values": [{"measurement": "binding", "setting": "[2]", "value": "binds"}]}
{"binder": "B4", "values": [{"measurement": "binding", "setting": "[2]", "value": "binds"}]}
